Binding data for 8 molecules are collected here from publication PMC1414084.

Results are given in words; binding and its absence hold for the method and conditions named. Some results given as binding are weak or reduced against the parent protein; the word gives no strength.

What all share (experiment): two-hybrid; mammalian two-hybrid; bait fused to the Gal4 DNA-binding domain (BIND), prey to the VP16 transcriptional activation domain (ACT); luciferase reporter; cultured mammalian cells, 37°C; positive from 3 times the background activity (level 1), the selected set is level 2 (>=5 to <10 times) and level 3 (>=10 times)
Assay [1] addresses T1, PH1024, hypothetical protein (Pyrococcus horikoshii OT3) (UniProt O58773).
T1 sequence: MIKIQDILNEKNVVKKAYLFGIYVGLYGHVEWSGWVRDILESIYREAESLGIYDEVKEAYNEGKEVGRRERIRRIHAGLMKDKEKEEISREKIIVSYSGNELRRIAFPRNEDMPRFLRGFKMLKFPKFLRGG

Assay [2] has as its target PH1025, hypothetical protein (Pyrococcus horikoshii OT3) (UniProt O58772).
The target of assay [3] is T2, PHS013, hypothetical protein (Pyrococcus horikoshii OT3) (UniProt O73966).
T2 sequence: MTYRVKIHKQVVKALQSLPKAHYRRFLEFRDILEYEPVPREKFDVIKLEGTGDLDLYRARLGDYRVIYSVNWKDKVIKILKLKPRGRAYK

For assay [4], the target named is T3, PH0074, hypothetical protein (paralog to PH0073) (Pyrococcus horikoshii OT3) (UniProt O57789).
T3 sequence: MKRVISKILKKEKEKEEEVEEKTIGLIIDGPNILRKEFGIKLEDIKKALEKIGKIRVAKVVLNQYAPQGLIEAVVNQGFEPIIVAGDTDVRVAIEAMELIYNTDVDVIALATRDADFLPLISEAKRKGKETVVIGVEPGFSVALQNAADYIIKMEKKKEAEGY

Assay [5] concerns the target PH0073, hypothetical protein (paralog to PH0074) (Pyrococcus horikoshii OT3) (UniProt O57790).
Assay [6] addresses T4, PH1354, SNO like protein (Pyrococcus horikoshii OT3) (UniProt O59079).
T4 sequence: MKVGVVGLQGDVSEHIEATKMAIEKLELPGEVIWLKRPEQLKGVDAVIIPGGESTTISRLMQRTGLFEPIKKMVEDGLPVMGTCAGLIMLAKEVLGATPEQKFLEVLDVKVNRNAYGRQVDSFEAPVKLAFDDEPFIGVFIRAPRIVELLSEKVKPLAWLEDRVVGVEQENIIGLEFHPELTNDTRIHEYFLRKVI

The target in assay [7] is PH1355, SNZ like protein (Pyrococcus horikoshii OT3) (UniProt O59080).
Assay [8] concerns the target T5, PH0403, hypothetical protein (Pyrococcus horikoshii OT3) (UniProt O58140).
T5 sequence: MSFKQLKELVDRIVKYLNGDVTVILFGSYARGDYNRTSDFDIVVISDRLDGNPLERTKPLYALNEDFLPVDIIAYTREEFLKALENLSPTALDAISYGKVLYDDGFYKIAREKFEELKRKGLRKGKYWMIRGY

The target in assay [9] is T6, PH0354, hypothetical protein (Pyrococcus horikoshii OT3) (UniProt O58092).
T6 sequence: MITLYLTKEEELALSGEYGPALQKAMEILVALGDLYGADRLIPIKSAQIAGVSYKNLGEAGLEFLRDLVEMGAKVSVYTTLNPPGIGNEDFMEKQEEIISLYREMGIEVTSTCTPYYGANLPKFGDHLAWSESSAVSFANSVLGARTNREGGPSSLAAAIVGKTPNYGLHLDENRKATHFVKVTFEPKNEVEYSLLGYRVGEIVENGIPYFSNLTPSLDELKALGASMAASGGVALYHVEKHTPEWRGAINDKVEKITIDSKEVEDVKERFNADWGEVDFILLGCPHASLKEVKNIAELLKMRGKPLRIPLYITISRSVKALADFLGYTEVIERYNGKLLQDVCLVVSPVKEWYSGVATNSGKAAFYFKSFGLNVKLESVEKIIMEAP

Assay [10] has as its target T7, PH0813, hypothetical protein (paralog to PH0812) (Pyrococcus horikoshii OT3) (UniProt O58543).
T7 sequence: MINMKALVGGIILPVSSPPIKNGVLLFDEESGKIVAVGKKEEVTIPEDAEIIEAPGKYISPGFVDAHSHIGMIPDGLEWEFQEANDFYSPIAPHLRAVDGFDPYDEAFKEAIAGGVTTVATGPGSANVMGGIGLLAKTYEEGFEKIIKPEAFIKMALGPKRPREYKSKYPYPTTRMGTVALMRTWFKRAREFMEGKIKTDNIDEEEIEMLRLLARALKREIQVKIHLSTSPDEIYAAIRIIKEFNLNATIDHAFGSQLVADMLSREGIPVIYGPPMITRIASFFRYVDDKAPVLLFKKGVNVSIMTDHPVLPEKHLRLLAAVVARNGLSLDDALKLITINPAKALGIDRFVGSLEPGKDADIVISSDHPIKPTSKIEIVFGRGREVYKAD

In assay [11] the target is T8, PH0469, hypothetical protein (Pyrococcus horikoshii OT3) (UniProt O58206).
T8 sequence: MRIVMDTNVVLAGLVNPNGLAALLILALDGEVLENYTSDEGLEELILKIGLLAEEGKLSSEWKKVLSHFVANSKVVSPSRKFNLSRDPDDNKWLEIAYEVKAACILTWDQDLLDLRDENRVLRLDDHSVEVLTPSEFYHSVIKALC

B1: PH1025, hypothetical protein (protein, UniProt O58772 1-236)
chain: MQTQQERISTGVKGLDELIEGGLIPGRVYLITGPPGSGKTTFGMQFLLEGARRGEKVAYISLIHKPEEVVRDMVRFDPSVYVYVNNWRLILYDLGPILWRESTKVPTWRSVLSRIREITENEKITRLVIDPLTAIDFPLQDPVEKRVELAKFVRSLENLGVTTYLIAEMVELDKYSEEHYLVSGIIMLHYFMHEGRMIRAIQIFKMRGTKHDPNLKLLKFTDQGLVVYNKSPFEVV
Regarding B1, the binding entry in [1] and in [2] was “binds” throughout.

B2: PHS014, hypothetical protein (protein, UniProt O73967 1-67)
chain: MRMEKVGDVLKELERLKVEIQRLEAMLMPEERDEDITEEEIAELLELARDEDPENWIDAEELPEPED
For B2, the binding result in [3] is given as “binds”.

B3: PH0073, hypothetical protein (paralog to PH0074) (protein, UniProt O57790 1-195)
chain: MATMARWERIVEGVKSIALIKRKIISRGKRIALLVDGPNILRKELGVHLEDIVEALSSLGNIRVAKVILNQYAPQSLIEAVSNQGFEPVIVAGEIGVKLAVEAMREVYNPNIDIIALATRNTEFVPIILKAKEKGKETAIIGVEPGFSSALKHAADYVIVLESRGELSEEGNIEDIEEGKGEGGRGRRKNDRLDN
Take B3: the binding entry in [4] and in [5] was “binds” throughout.

B4: PH1355, SNZ like protein (protein, UniProt O59080 1-335)
chain: MDKLKIIMEKGTERLKRGFAKMVKGGVIMDVTNAEQARIAEEAGAVAVMALHKVPADIRKAGGVARMAPVEKIQEIMDAVTIPVMAKCRIGHEAEARILEALGVDMIDESEVLTPADPFFHIYKKKFTAPFVCGARNLGEAVRRIWEGAAMIRTKGEAGTGNIIEAVRHVRLVNENIRLIQRMTDEEIYGVAEKFAEPYLRLAFSVKEISGLPKRVLENEPIYEGFTYREIVEDIYKILLEIKKLGRLPVVNFAAGGVATPADAALMMAMGMDGVFVGSGIFKSSNPPKMARAIVEAVNHWDEPDVLAEISREIGEPMRGQAIEELQVRMEERGI
With B4, the binding entry in [6] and in assay [7] was “binds” throughout.

B5: PH0402, hypothetical protein (protein, UniProt O58139 1-140)
chain: MGMFKRREYERWIVEAKRTLSSAYSDLKEGYYEWASFKAQQAAELAVKAILRGLGFAPIGHSITRLLKDLSGSLNLDIPREILYFAMELDRNYIAPRYPDAYPEGSPFEYYSEDIAKELVKYAEKIIKFVEVVVDELQAT
For B5, the binding entry in assay [8] is reported as “binds”.

B6: PH0353, hypothetical protein (protein, UniProt O58091 1-134)
chain: MKLKGKGIGKVVVEGEVIVSRKPLSFLGGVDPETGTITDPESDIKGESITGKILVFPKGKGSTVGSYILYALSKNGKGPKAIIVEEAEPIVTAGAIISGIPLITNVDISKLKTGMRVRINPQEGEVEILAEGNL
For the molecule B6, the binding result in [9] is “binds”.

B7: PH0812, hypothetical protein (paralog to PH0813) (protein, UniProt O58542 1-381)
chain: MLVIKGVKAYTMSNIGVVEKANIIVKDGKIVDVTQELPPLEGKTVVDGEGLIALPGLIDPHTHLGVYSLEWEYGDHGTEKSDPITPHFKVIDGLDIFDPGFKDAIAGGVTTVSVEPGAPLSWASYEKTTIMPGQSAILKTNGRIIKEEAGIKIAVGGHVRKFLEELKLTPTTRMGIFAMIRMILHKAKEYLEKEDKQYDPKLEALATLLKNETVARVHAHLSRDMLSIIRLLKEFDIKNIIIEHGTEAYKISDVLKENGIPVILGPVIFPRRGVELRELSSKLAFQLYNSGMMFALTTDHPALPIQYLTLVAAACVGEGLPYEEALKSITINPAKILGIDRFVGSLEPGKDADIVLFDGDPLNPESKVMYTIIDGEVVYER
B7: the binding result in assay [10] is on record as “binds”.

B8: PH0468, hypothetical protein (protein, UniProt O58207 1-108)
chain: MMAVENAVDYPISVRLPSYVVEKIDELVKKRKFRSRSDFIKFAVTFALGQIMMEEARERAKNEPEELEKERKEAWMRLRAGDFSKEDEETLELLKKVDARYKRLGGRS
For B8, in assay [11], the binding entry is on record as “binds”.
